Literature values as cited in US11214591B2, “Enzyme compositions, steroid derivatives, enzyme inhibitors, and methods of making same for pharmaceutical applications” (BOARD OF REGENTS, THE UNIVERSITY OF TEXAS SYSTEM, priority 2018, dated 2022).
At least one structure is not confirmed: it was looked up by name or label, or the drawing left a doubt.

Settings: mice feeding study; bile acid composition of micelles

**Q.** Which cholesterol absorption does the source give for `C[C@H](CCC(=O)O)[C@H]1CC[C@H]2[C@@H]3[C@@H](O)C[C@@H]4C[C@H](O)CC[C@]4(C)[C@H]3CC[C@]12C` [ursodeoxycholic acid] here?
**A.** Its cholesterol absorption is 37%.
